## Primary screen of a compound library

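Viability assay of Plasmodium falciparum sporozoites; the read-out is not stated. The concentration is filed as 10 mM, unlikely as a test dose, so the dose is not known. Direction is inferred from retests: higher values go with lower viability. Strong results were mostly tested again. Size under these conditions: about 34,000 compounds, about 280 of them at 50% or above in at least one test.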

The filed quantity is “Percent Effect” (%).
The record does not define 0% and 100%; most values in the screen are far below 50% and negative numbers occur (in some assays of this library far below -100).
The compounds are a random part of those screened.

SMILES,effect
O=C(O)C(F)(F)F.O=C(O)C(F)(F)F.[H][C@@]12CCN(Cc3cccc(C)n3)[C@@]1([H])CCN2C(=O)c1ccno1,-17.36
O=C(c1cccnc1)N1CCCC1c1cc[nH]n1 (stereo not drawn),16.11
CS(=O)(=O)N1CC(c2n[nH]c3ncccc23)C1,6.451
O=C(O)C(F)(F)F.O=C(O)C(F)(F)F.O=C(O)C(F)(F)F.O=C(O)C(F)(F)F.c1ccc(CN2CCC3(CC2)CCN(Cc2cccnc2)C3)nc1,6.1
CN(C)CCN1C(=O)CCCC12CCCN(Cc1ccc[nH]1)C2 (stereo not drawn),1.313
O=C(O)C(F)(F)F.c1cncc(N2CCCC3(CCN(CC4CCCO4)CC3)C2)c1 (stereo not drawn),12.82
CSCc1cc(F)ccc1CNC(=O)N1CCCC(CO)C1 (stereo not drawn),-8.07
O=C1CC2(CCCCN2C(=O)c2ccsc2)CN1CC1CC1 (stereo not drawn),2.489
CC(C)CN1CCN(C(=O)c2cc(=O)c3ccccc3[nH]2)CC1,-0.5325
O=C(O)C(F)(F)F.O=C(O)C(F)(F)F.O=C(O)C(F)(F)F.[H][C@@]12C[C@@H](Oc3cccnc3)CN1CCN(c1ncc(F)cn1)C2,10.19
Cc1nccn1C1CCCN(C(=O)c2ccc3c(c2)nnn3C)C1 (stereo not drawn),5.134
CC(=O)N1CCC(c2cccc(Oc3ccccc3)n2)CC1,-4.808
Cc1noc(C)c1-c1ccc(C2CCCN2C(=O)Cn2ccnc2)nc1 (stereo not drawn),1.092

Measurements from “University of Dundee, Small-Polar-MMV Screening Library” (2021), ChEMBL document CHEMBL3988442.